The values below come from paper PMC8828467, “Activation mechanism of PINK1” (Nature, 2021).

Results are given in words; binding and its absence hold for the method and conditions named. In cells and extracts the contact can be indirect. Some results given as binding are weak or reduced against the parent protein; the word gives no strength.

Common to all, as to experiment: cross-linking; HsPINK1 variants expressed in HeLa PINK1−/− cells, OA for 2 h, 2 mM H2O2 in the medium for 10 min, lysis in SDS sample buffer, non-reducing gel, anti-PINK1 blot
One assay has as its target HsPINK1 D384A (human) (UniProt Q9BXM7).
A further assay addresses HsPINK1(C166A) (human) (UniProt Q9BXM7).
Assay [1] deals with T1, WT HsPINK1 (full length) (human), Q9BXM7.
T1 chain: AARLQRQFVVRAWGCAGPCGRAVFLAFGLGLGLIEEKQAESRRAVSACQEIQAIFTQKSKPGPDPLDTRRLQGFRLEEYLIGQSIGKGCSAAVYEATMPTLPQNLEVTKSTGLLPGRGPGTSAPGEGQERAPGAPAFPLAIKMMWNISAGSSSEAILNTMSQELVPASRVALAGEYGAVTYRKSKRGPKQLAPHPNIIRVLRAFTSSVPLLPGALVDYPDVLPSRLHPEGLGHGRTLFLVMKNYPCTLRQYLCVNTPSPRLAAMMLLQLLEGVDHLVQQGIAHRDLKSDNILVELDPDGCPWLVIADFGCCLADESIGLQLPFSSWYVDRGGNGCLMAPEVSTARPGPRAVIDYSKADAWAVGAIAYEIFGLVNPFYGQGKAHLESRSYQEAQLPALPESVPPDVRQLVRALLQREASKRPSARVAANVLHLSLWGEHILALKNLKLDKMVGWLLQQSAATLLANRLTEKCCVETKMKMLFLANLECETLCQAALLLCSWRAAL
The conditions noted are these: remark: other sources report otherwise.

For the molecule “HsPINK1 D384A (from UniProt Q9BXM7 78-581) (enzyme)”, in the assay with HsPINK1 D384A (human), the binding entry was “binds”.

In the case of “HsPINK1(C166A) (from UniProt Q9BXM7 78-581) (enzyme)”, the binding result in the assay with HsPINK1(C166A) (human) is “no binding”.

B1: WT HsPINK1 (full length), Q9BXM7 78-581 (enzyme)
chain: AARLQRQFVVRAWGCAGPCGRAVFLAFGLGLGLIEEKQAESRRAVSACQEIQAIFTQKSKPGPDPLDTRRLQGFRLEEYLIGQSIGKGCSAAVYEATMPTLPQNLEVTKSTGLLPGRGPGTSAPGEGQERAPGAPAFPLAIKMMWNISAGSSSEAILNTMSQELVPASRVALAGEYGAVTYRKSKRGPKQLAPHPNIIRVLRAFTSSVPLLPGALVDYPDVLPSRLHPEGLGHGRTLFLVMKNYPCTLRQYLCVNTPSPRLAAMMLLQLLEGVDHLVQQGIAHRDLKSDNILVELDPDGCPWLVIADFGCCLADESIGLQLPFSSWYVDRGGNGCLMAPEVSTARPGPRAVIDYSKADAWAVGAIAYEIFGLVNPFYGQGKAHLESRSYQEAQLPALPESVPPDVRQLVRALLQREASKRPSARVAANVLHLSLWGEHILALKNLKLDKMVGWLLQQSAATLLANRLTEKCCVETKMKMLFLANLECETLCQAALLLCSWRAAL
In the case of B1, in assay [1], the binding result is “binds”.
